According to patent publication US20210139559A1:
These are yes or no findings as the source states them, for the method shown. Some entries that bind do so weakly or less than the wild type. Sequences can lack the tags named with a protein.

Legend:
[1] = molecular target: PDGF-AA (UniProt P04085); test: native PAGE electromobility gel shift (FIG. 5)
[2] = molecular target: PDGF-AA (UniProt P04085); test: native PAGE electromobility gel shift, equimolar 25 pmol; alone or together with VEGF-A165

B1: PDGFRαD123-PAS(200)-VEGFR1D2/R2D3 fusion protein (receptor)
chain: QLSLPSILPNENEKVVQLNSSFSLRCFGESEVSWQYPMSEEESSDVEIRNEENNSGLFVTVLEVSSASAAHTGLYTCYYNHTQTEENELEGRHIYIYVPDPDVAFVPLGMTDYLVIVEDDDSAIIPCRTTDPETPVTLHNSEGVVPASYDSRQGFNGTFTVGPYICEATVKGKKFQTIPFNVYALKATSELDLEMEALKTVYKSGETIVVTCAVFNNEVVDLQWTYPGEVKGKGITMLEEIKVPSIKLVYTLTVPEATVKDSGDYECAARQATREVKEMKKVTISVHEKGASPAAPAPASPAAPAPSAPAASPAAPAPASPAAPAPSAPAASPAAPAPASPAAPAPSAPAASPAAPAPASPAAPAPSAPAASPAAPAPASPAAPAPSAPAASPAAPAPASPAAPAPSAPAASPAAPAPASPAAPAPSAPAASPAAPAPASPAAPAPSAPAASPAAPAPASPAAPAPSAPAASPAAPAPASPAAPAPSAPAASDTGRPFVEMYSEIPEIIHMTEGRELVIPCRVTSPNITVTLKKFPLDTLIPDGKRIIWDSRKGFIISNATYKEIGLLTCEATVNGHLYKTNYLTHRQTNTIIDVVLSPSHGIELSVGEKLVLNCTARTELNVGIDFNWEYPSSKHQHKKLVNRDLKTQSGSEMKKFLSTLTIDGVTRSDQGLYTCAASSGLMTKKNSTFVRVHEKHHHHHHA
modifications: glycosylated (as purified from MEXi-293E medium)
binding [1]: binds
binding [2]: binds
